The supplement of paper PMC12764529
± gives the half width of the 95% confidence interval. The two proteases of the assay disagree for many of these sequences.

Assays:
[1] = folding stability dG unfold from chymotrypsin proteolysis; higher = more stable
Description: (§1)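 Folding stability of de novo designed mini-proteins (<80 aa, no Cys; designed by TrROS, TrMRF, ProteinMPNN and the joint model) was measured by cDNA display proteolysis with trypsin and chymotrypsin. Each protease was used at 11 concentrations in a threefold dilution series plus a no-protease condition. K50 was inferred by Bayesian fitting of sequencing counts, and dG unfold was derived against a sequence-predicted unfolded-state K50 (Tsuboyama et al. method). Sequences shown include variable-length N-terminal GS-type padding (SAGGSAGG...) inside a display construct carrying a PA tag. Rows were kept only if the AF2 dimer inter-PAE was >15, to exclude likely homo-oligomers.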

[2] = folding stability dG unfold (combined trypsin and chymotrypsin); higher = more stable
Description: as §1

| Sequence | folding stability dG unfold [1] | folding stability dG unfold [2] |
| --- | --- | --- |
| SAGGSAGGSAPYLGADGRFALYRHPDSPEITLYEYDLETGEWRPVASLPADQLPEELLEAESAGGSAGGSAG [r3_241_TrMRF] | 1.49 ± 0.068 kcal/mol | 0.957 ± 0.045 kcal/mol |
| SAGGSAGGSAVETVREDGTLARITLPETGEEFAVPPDLSDEEARARHPAVVITRAPVPAPPLSAGGSAGGSA [r18_53_JUSTAS] | 1.2 ± 0.016 kcal/mol | 0.666 ± 0.054 kcal/mol |
| SAGGSAGGSAGGMTTLVLPAEVEPVPDGVRVRLPDGEDLYVPPGERVERTPDRVEVTLGSAGGSAGGSAGGS [r10_305_JUSTAS] | 0.383 ± 0.058 kcal/mol | -0.448 ± 0.25 kcal/mol |
| SAGKKKPEKIEIEIEIEINGKKYKVKLEVEKIGNKYVVKMEITNKNGEKFKIEAVFDVKTGKLTLKIYPSAG [r5_316_TrROS_Hall] | 3.68 ± 0.21 kcal/mol | 3.18 ± 0.5 kcal/mol |
| SMTEELTLTVEVPFTPPDGTTVTLTITVTGTAPVPEEILEEGSPYIPEEALAALKAAAEAAIAAATGRAASA [r9_629_JUSTAS] | 1.64 ± 0.14 kcal/mol | 0.888 ± 0.21 kcal/mol |
| SAGGSAIKIDPDYGTIEIYNPDNGKEIEIPIDGLPPGRKMDIEINNDKIEIKMPGGTRELPIDDIKSAGGSA [r15_864_TrROS] | 0.655 ± 0.068 kcal/mol | 0.194 ± 0.26 kcal/mol |
| SAGGSAGGSAGGPTRRLELLVFDPETNRLVRRRLELRDGELRLEVEVVRLPPPPPPPARSAGGSAGGSAGGS [r10_354_TrROS_Hall] | 2.68 ± 0.031 kcal/mol | 1.93 ± 0.097 kcal/mol |
| SAGGSAGGMVVVGDKKVAIVTPEKDPEAVLEKVKKEVPGGNVTLRPDVSPEELKAANEIVIELPSAGGSAGG [r6_680_JUSTAS] | 1.11 ± 0.032 kcal/mol | 0.614 ± 0.068 kcal/mol |
| SAMAPVRLFRALGLPVRRIDLRRAPDGDLWISAEIEGYVLEPADADGRPRRRPVRLRITMPVRDALDGLSAG [r14_16_TrMRF] | 2.78 ± 0.097 kcal/mol | 2.08 ± 0.11 kcal/mol |
| SAGGSAGGSAGGPSMRRTVNLKLFVTPEEEEKAEAIAKELKEKGVDVRDVEIILLPPELKSAGGSAGGSAGG [r11_533_JUSTAS] | 1.11 ± 0.059 kcal/mol | 0.575 ± 0.095 kcal/mol |
| SAGGSAGGSMSEELLAEGPVRIRVRVRNKDGSVEEIEVEAGEEIELPEELKNQDVEIVSIEPVSAGGSAGGS [r12_161_TrROS_Hall] | 2.15 ± 0.088 kcal/mol | 1.74 ± 0.089 kcal/mol |
| SAGGSAGGSGSMTRTSSIQDPELLAAVKAALAAGEPTATVPAPDGRPVTITEYVGDTLTTTVESAGGSAGGS [r12_334_JUSTAS] | 1.1 ± 0.028 kcal/mol | 0.608 ± 0.043 kcal/mol |
| SMVYVFEVPEGDPEKAEELIRAKLEEEFGYKVESVATPGGGGARVVLVVDPVEDKAYAEVIPFAPDGSPASA [r9_173_TrMRF] | 1.15 ± 0.2 kcal/mol | 0.618 ± 0.16 kcal/mol |
| SGSLAERIAAEIRARGLELLETRVSYDPATGLTTVEMLARDPDDPATVRVEVTADPAADVVLARREEPEPSA [r9_814_JUSTAS] | 1.51 ± 0.026 kcal/mol | 1.05 ± 0.036 kcal/mol |
| SAGSPATLRAQAEEEARALAAELGAEVTVDVTVEPVPGEYVVRTTATLTFPGGEVRTLPRTTRVPRSLVSAG [r5_609_JUSTAS] | 1.09 ± 0.08 kcal/mol | 0.953 ± 0.08 kcal/mol |
| SAGGSAGGSAGGMITVTTSSTPGTRTVTVTLPTGAPITLDFPPDETLADAIAAARAAIAASAGGSAGGSAGG [r7_265_JUSTAS] | 1.17 ± 0.018 kcal/mol | 0.651 ± 0.064 kcal/mol |
| SAGGSAGGSAGGETVTLTVKVKFTFTVPDPDGVEHPVEAEFPAEISLPRELATEELLEAASAGGSAGGSAGG [r7_777_TrMRF] | 1.59 ± 0.093 kcal/mol | 0.916 ± 0.12 kcal/mol |
| SAGVVNATVTVTYPLPGLPERTLTVTLTFPATPEEAAALARALAALVAGLLTLLARLDAVDFDTSTSPDESA [r9_626_TrMRF] | 4.148 ± 0.022 kcal/mol | 3.69 ± 0.043 kcal/mol |
| SAGGSAGGVLVPAEAIRRAFPDFVVEVRPRRVRRVRPDPLRPGVPVFEERVVPVLDLRRREDLFSAGGSAGG [r6_659_TrMRF] | 1.02 ± 0.082 kcal/mol | 0.451 ± 0.077 kcal/mol |
| SAGGMLTVEQIREAIKKLPPGARIKIKIEVNGKTYEIEIEVGEEIEFPPGLSEEDITRIEIVEIEEESAGGS [r16_97_TrROS_Hall] | 2.99 ± 0.12 kcal/mol | 4.55 ± 0.72 kcal/mol |
| SGMVTLEDIAAAPPGTPVVVTTKKQGSKNLTFIDAVVDGARSSASYPSIEEARKELEAVGYPVEFVDPAESA [r9_1021_JUSTAS] | 0.143 ± 0.066 kcal/mol | -0.429 ± 0.19 kcal/mol |
| SAGGSAEKPVRTLEITVTVPPGQPTPEELARALAEELGVEVTRVEVVRVERNEDGELTVTVRVEVKSAGGSA [r15_654_TrROS_Hall] | 2.5 ± 0.14 kcal/mol | 2.99 ± 0.14 kcal/mol |
| SAGGSAGGSAGGSMIEVVPGPGRVTVTTITEVEPLPPHEAVVVKTETTVVPAGNPAALGSAGGSAGGSAGGS [r4_137_JUSTAS] | 1.2 ± 0.02 kcal/mol | 0.696 ± 0.057 kcal/mol |
| MKYKVKIKIETKAEITYEKTPDGTIRPRLDKGSAEFEIEAEPEELEELLKELNIPEDVIDKIEIEVFPKESS [r1_351_TrMRF] | 1.1 ± 0.21 kcal/mol | 0.616 ± 0.34 kcal/mol |

Whole records, quoted from the list:
SAGGSAGGSAVETVREDGTLARITLPETGEEFAVPPDLSDEEARARHPAVVITRAPVPAPPLSAGGSAGGSA [r18_53_JUSTAS] is listed with folding stability dG unfold [1] = 1.2 ± 0.016 kcal/mol; folding stability dG unfold [2] = 0.666 ± 0.054 kcal/mol
SAGGSAGGSAGGETVTLTVKVKFTFTVPDPDGVEHPVEAEFPAEISLPRELATEELLEAASAGGSAGGSAGG [r7_777_TrMRF] is listed with folding stability dG unfold [1] = 1.59 ± 0.093 kcal/mol; folding stability dG unfold [2] = 0.916 ± 0.12 kcal/mol

Going on with the list:

| Sequence | folding stability dG unfold [1] | folding stability dG unfold [2] |
| --- | --- | --- |
| SAGGSAGGMARRRVTPEELARAVPPGQLALLYLPRSGRWAVVPPGVLEDLFAPEDDVLVELAPLSAGGSAGG [r6_893_TrMRF] | 1.53 ± 0.29 kcal/mol | 0.858 ± 0.15 kcal/mol |
| SAGGSAGGSAPPAQPIPINIKITNPGNGKKREIPFDIPPGMNIEEIADELAKEDGIHRVEIESAGGSAGGSA [r18_58_TrROS] | 1.11 ± 0.048 kcal/mol | 0.465 ± 0.17 kcal/mol |
| SAGGSAGGSAGVKVERDPNGSTRTITTTTTTTLPTEDGTLVTTETVTTTTVPLSPDVPLLSAGGSAGGSAGG [r17_480_JUSTAS] | 1.56 ± 0.076 kcal/mol | 1.02 ± 0.12 kcal/mol |
| SAGGSAGGSAGGMTPEEEEALRKAREAAERNPEVPVVEVEVTLPGPDGDPRVIRITLPVRSAGGSAGGSAGG [r7_91_JUSTAS] | 1.7 ± 0.05 kcal/mol | 1.25 ± 0.066 kcal/mol |
| SGPTATINPEVPGPVPGGEVIPATVEIDVPPDKIDEVVDRIAKEAGIPDLKVGKIEPTKDGKVKIVVERKSA [r9_1101_TrMRF] | 1.32 ± 0.1 kcal/mol | 0.626 ± 0.27 kcal/mol |
| SAGGAEELAKRLAEELREAGYEVEVVKVERLENGEVVITMKVRVVKDGKEVEEREIKLVLKLPEELLSAGGS [r8_102_TrROS_Hall] | 4.03 ± 0.069 kcal/mol | 3.98 ± 0.086 kcal/mol |
| SAGGSAGGSAGMLSVTELSTEEKGSLVTTTTRATVGSTTVTTTTTTFVPRSTALLNPDRGSAGGSAGGSAGG [r11_213_JUSTAS] | 0.55 ± 0.089 kcal/mol | -0.0509 ± 0.48 kcal/mol |
| SAGSAVVRDFDFEVPPGYGVLDVTVTEGPGPPVWEGTVTFQAGGAPETLTVTIPVDPATGARSVAMTAGSAG [r5_136_JUSTAS] | 0.267 ± 0.13 kcal/mol | -0.235 ± 0.25 kcal/mol |
| SAGGSAGGSAGGSYRLETLPLPGGYRLVLVHLPDGTVLAVLYNADGTPVLKTFPENYPVASAGGSAGGSAGG [r7_215_TrMRF] | 3.221 ± 0.019 kcal/mol | 2.71 ± 0.047 kcal/mol |
| SAGGSAGGSAGGPPLRVVEVRYDPETGTLLVTVELPNGERVVARANPSDGTVEVLAVFPSAGGSAGGSAGGS [r10_1255_TrMRF] | 1.6 ± 0.05 kcal/mol | 1.09 ± 0.14 kcal/mol |
| SKPITADEIAKHFPGIKDVEPTPNKKRLDFDNPNGHKPTIEVSPDGTIMIEHQNPDNGQKQEQEIPIDDLSA [r9_427_TrROS] | 0.596 ± 0.056 kcal/mol | 0.0598 ± 0.26 kcal/mol |
| SAGGMKPRVITFEVTADDPADKEKARAEALARAEALAEADPDRAILGTTATVEETDASVTVTLPVTVSSAGG [r13_305_JUSTAS] | 1.09 ± 0.12 kcal/mol | 0.485 ± 0.13 kcal/mol |
| SAGGSAGGSAGGSGTEELLLEVPVLRRSDGGWEPVETRELPVSVPVNDAPAARELAEAASAGGSAGGSAGGS [r4_153_TrMRF] | 1.14 ± 0.024 kcal/mol | 0.592 ± 0.11 kcal/mol |
| SAGGSAGGSAGGTVETLPDGGRREVEEVTAPDGTRLVRVRYFDPEGRPVSERVVPVEELESAGGSAGGSAGG [r7_660_JUSTAS] | 2.067 ± 0.01 kcal/mol | 1.58 ± 0.039 kcal/mol |
| SAGGSAGGSAGGVLRPPGFPGAAVLLEEDPDNPDVVKLTVVDPATGEPYEFTVKRSDLTASAGGSAGGSAGG [r17_341_TrMRF] | 1.16 ± 0.093 kcal/mol | 0.567 ± 0.1 kcal/mol |
| SAGGSAGGSAGGGFTLIPPEEFEVLRKKLGYTLEGTEELPGPSKAVRLKDPNGKTIVVDSAGGSAGGSAGGS [r10_210_JUSTAS] | 1.15 ± 0.18 kcal/mol | 0.503 ± 0.2 kcal/mol |
| SAGGDKLGKPLGGKPVTFDISKEELSYNPSNGTWSKSVVTTPRTVFYPPDAEPDPAVFASGAGSVTLASAGG [r13_753_JUSTAS] | 0.281 ± 0.091 kcal/mol | -0.184 ± 0.077 kcal/mol |
| SAGGSAHPPGAPVVRVEVRAELLEERPSPDGVPEATFRVEVEVRVETVPALPPLGGGLADAPDPDLSAGGSA [r2_495_TrMRF] | 1.8 ± 0.056 kcal/mol | 1.26 ± 0.098 kcal/mol |
| SAGGSAGGGASTRRTITVPYEDPEEAFEKVKEEVKAETGKPTEVTLTEIDPNNPGVITVEVTVSSAGGSAGG [r6_211_JUSTAS] | 0.938 ± 0.019 kcal/mol | 0.351 ± 0.07 kcal/mol |
| SASLVEEIIAEAEKKEAESGKKVPVTVTLPLTSEPSGPVLSEEEVERVVEEIKKALPDMPITVVLEPPGSAG [r14_636_JUSTAS] | 1.56 ± 0.1 kcal/mol | 1.04 ± 0.11 kcal/mol |
| SAGGISVEIYPPNGKKVELEGDTIPELMDKFPPGGNYVIKIEQPHVNPGNGKKQPMEMEFRVPPDDFSAGGS [r16_806_TrROS] | -0.202 ± 0.23 kcal/mol | -0.697 ± 0.33 kcal/mol |
| SAGGSAGGSAGEKDLPVIEVEFPFPSSFPLPLIKKFAEPFGVKKVEFFEDGTVKVLYVLDSAGGSAGGSAGG [r11_961_TrMRF] | 0.984 ± 0.14 kcal/mol | 0.806 ± 0.13 kcal/mol |
| SAEIVLTLDELRALAEAGDLERVRALLEEARALFPGARIRIVLPPPPPPPPPEPEEVEEERRRRRLEEESAG [r14_236_TrROS_Hall] | 1.37 ± 0.05 kcal/mol | 0.865 ± 0.13 kcal/mol |
